Earlier results in patent US8206751B2, “Class of therapeutics that enhance small molecule diffusion” (Diffusion Pharmaceuticals LLC, priority 2007, dated 2012).
At least one structure is not confirmed: it was looked up by name or label, or the drawing left a doubt.

Conditions: cited from earlier work

Structure (SMILES): CC(/C=C/C=C(\C)C(=O)[O-])=C\C=C\C=C(C)\C=C\C=C(/C)C(=O)[O-].[Na+].[Na+] [TSC, trans sodium crocetinate]
- amount of hydrogen bonding when dissolved in water: increases the amount of hydrogen bonding
